In patent publication US6232438A, “Angiotensin converting enzyme inhibitors” (Nong Shim Co., Ltd., priority 1996, dated 2001):
At least one peptide structure holds a part that was inferred or is arguable (an end, a ring closure or a residue). Residues, ends and D or L forms follow the SMILES beside them.

Test system: ACE
Assay: ACE inhibiting activity, commercially available ACE on substrate HHL, hippuric acid measured at 228 nm
Assay type: biochemical
Details: concentration obtained by using nitrogen analyzer

| Structure (SMILES) | IC50, a concentration wherein ACE activity is inhibited by 50% [μg protein/ml] |
| --- | --- |
| CC(C)C[C@H](NC(=O)[C@H](Cc1c[nH]cn1)NC(=O)[C@@H](N)Cc1c[nH]cn1)C(=O)O [His-His-Leu] (H-His-His-Leu-OH) | 21.8 |
| CC(C)C[C@H](NC(=O)[C@H](CC(C)C)NC(=O)[C@@H](N)Cc1c[nH]cn1)C(=O)O [His-Leu-Leu] (H-His-Leu-Leu-OH) | 22.2 |
